Source: paper PMC5749684, “Tetrahydrocarbazoles are a novel class of potent P-type ATPase inhibitors with antifungal activity” (PLoS ONE, 2018)
Some entries of the source have several records that differ or are many. The other results are left out here. There may be further records. Values given together differ, and nothing given here explains why; dose, time, organism, isomer or construct need not be as stated for each record.

System: Saccharomyces cerevisiae
Assay: Fungal growth inhibition, S. cerevisiae (library hits, Table A)
Format: cell-based
Settings: Table A in S1 File, strain not stated

O=C(NC1CCCc2c1[nH]c1ccc(Br)cc21)c1ccccc1F (centres unmarked)
MIC S.cerevisiae (Table A): > 150 µM and nor exhibited antifungal activity

O=C(NC1CCCc2c1[nH]c1ccc(Br)cc21)c1ccccn1 (centres unmarked)
MIC S.cerevisiae (Table A): > 150 µM and nor exhibited antifungal activity
